# About 22,000 (6.9%) of roughly 320,000 compounds were called active. The shares of active, inactive and inconclusive entries below differ from those in the screen. Calls come from the whole dose curve; as a rule, active = well fitted inhibition curve with a large enough effect; inconclusive = small, poorly fitted or top-dose-only effect, or another doubt; inactive = no such curve, though single readings can be large or run the other way. Potencies of inconclusive entries are doubtful fits and often do not repeat.
# Assay: Primary qHTS for delayed death inhibitors of the malarial parasite plastid, 96 hour incubation
# Details: P. falciparum luciferase reporter growth; series mostly up to 28.7 µM
# In short: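 Delayed-death screen, second-generation endpoint: infected erythrocytes, 2% hematocrit, 0.05% parasitemia final; 96 hours at 37 C, 5% CO2; luciferase detection reagent; luminescence decrease equals reduced growth.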
# Potency is the fitted concentration of half-maximal effect.
row,Compound,Potency
1,O=c1cc(-c2ccccc2Cl)oc2c(NS(=O)(=O)c3cc(Cl)cc(Cl)c3O)ccc(O)c12,"inconclusive: 18.5 µM [inhibitor, single point]"
2,O=C(C1CC1)N1N=C(c2cccc(Br)c2)CC1(O)C(F)(F)F (stereo not drawn),"inconclusive: 14.7 µM [inhibitor, single point]"
3,CSC1=NS(=O)(=O)c2c(C)nn(C)c2S1,inactive
4,CC1CCN(C(=O)c2ccc3c(=O)n4c(nc3c2)CCCCC4)CC1,"inconclusive: 5.86 µM [inhibitor, partial curve]"
5,O=c1oc(/C=C/c2ccco2)nc2sc3c(c12)CCC3,inactive
6,COc1ccc(/C(=C/c2ccc(OC(F)F)c(OC)c2)C(=O)O)cc1OC,inactive
7,CC1CCc2nn(CC(=O)NCc3ccc4c(c3)OCO4)cc2C1 (stereo not drawn),inactive
8,COC(=O)C1=C(c2ccc(-c3ccccc3)c(F)c2)C[C@@H]2CC[C@H]1N2C(=O)NCC1CC1,"inconclusive: 2.08 µM [inhibitor, full curve]"
9,COc1ccc(-c2noc(CCC(=O)NCCc3ccccc3)n2)cc1OC,"inconclusive: 8.28 µM [inhibitor, partial curve, poor fit]"
10,CCOC(=O)C1=C(C)OC(N)=C(C#N)C1c1ccc(OC)c(C)c1OC (stereo not drawn),"inconclusive: 10.4 µM [inhibitor, single point]"
11,CCOc1ccc(NC(=O)Nc2cccn(Cc3ccccc3)c2=O)cc1,"inconclusive: 6.57 µM [inhibitor, partial curve]"
12,Cc1cccc(-n2cc(-c3ccccc3)c3c(NN4CCOCC4)ncnc32)c1,"inconclusive: 2.08 µM [inhibitor, partial curve]"
13,CCn1c(CN2CCOCC2)nnc1SCC(=O)Nc1ccc(C(C)=O)cc1,"inconclusive: 14.7 µM [inhibitor, single point]"
14,Cc1ccc(S(=O)(=O)N2CCCCC2C)cc1[N+](=O)[O-] (stereo not drawn),inactive
15,COc1ccc(/C=N/NC(=O)c2c(C)nc3ccc(Br)cn23)cc1OC,inactive
16,CC1=C(C(=O)Nc2cc(C(=O)NCCCOC(C)C)ccc2C)SCCO1,inactive
17,COC(=O)c1ccc(NC(=O)c2cccc(C)c2[N+](=O)[O-])cc1,inactive
18,Cn1c(Cn2c(=O)sc3ccccc32)nnc1SCC(=O)N1CCN(c2ccccc2)CC1,"inconclusive: 18.5 µM [inhibitor, single point]"
19,CCn1c(CN2CCN(C(=O)c3ccco3)CC2)nc2c1c(=O)n(C)c(=O)n2C,"inconclusive: 10.4 µM [inhibitor, single point]"
20,O=[N+]([O-])c1cccc(-c2csc(N/N=C/c3cccc(O)c3)n2)c1,inactive
21,COc1cc(CNc2ccc(N3CCCC3)cc2)ccc1OCc1ccccc1F,"inconclusive: 9.28 µM [inhibitor, single point]"
22,COc1ccc(C2NC(=O)C(C#N)=C(S)N2c2cccc(C)c2)cc1OC (stereo not drawn),"inconclusive: 10.4 µM [inhibitor, partial curve]"

row,Compound,Potency
1,CCOc1ccc(CCNC(=O)COC(=O)c2cc(OC)c(OC)cc2[N+](=O)[O-])cc1OCC,"inconclusive: 14.7 µM [inhibitor, partial curve, poor fit]"
2,COc1ccc(-n2nc(C(=O)NCC(=O)NCc3cccc(F)c3)c3ccccc3c2=O)cc1Cl,inactive
3,O=C(CSc1nnc(CCCOc2ccc(Cl)cc2Cl)o1)Nc1ccc(C(=O)O)cc1,"inconclusive: 4.15 µM [inhibitor, full curve, poor fit]"
4,CCC1CCC2(CC1)NC(=O)N(CC(=O)c1c(C)[nH]c3ccccc13)C2=O (stereo not drawn),"inconclusive: 18.5 µM [inhibitor, single point]"
5,CSc1cccc(NC(=O)CCCOc2ccc(Cl)cc2Cl)c1,"inconclusive: 0.147 µM [inhibitor, full curve, poor fit]"
6,O=S(=O)(c1ccc(Cl)cc1)c1snnc1-c1ccccc1,"inconclusive: 8.28 µM [inhibitor, partial curve, poor fit]"
7,Cc1cc2ccccc2n1CCNC(=O)c1ccc(Br)o1,"inconclusive: 10.4 µM [inhibitor, single point]"
8,CCOc1ccc(Cl)cc1/C=N/O,inactive
9,Cc1cc(C)c(CN2CCN(Cc3ccc(C)o3)C(CCO)C2)c(-n2cccn2)c1 (stereo not drawn),"inconclusive: 0.465 µM [inhibitor, partial curve, poor fit]"
10,O=C(CSc1nnc(CNC(=O)c2ccco2)o1)Nc1cccc(C(F)(F)F)c1,"inconclusive: 5.22 µM [inhibitor, partial curve]"
11,Cc1ccccc1OCCC(=O)N(Cc1ccccc1)c1c(N)n(Cc2ccccc2)c(=O)[nH]c1=O,"inconclusive: 11.7 µM [inhibitor, single point]"
12,Fc1ccc(NC(=S)Nc2cccc3ccccc23)cc1F,inactive
13,CCNc1ccc(P(=O)(c2ccccc2)c2ccccc2)cc1,inactive
14,Fc1cccc(NC(=S)Nc2ccc(Br)cc2)c1,"inconclusive: 18.5 µM [inhibitor, single point]"
15,COc1ccc(C(=O)NNC(=O)CSc2nnc(-c3ccc(O)cc3)n2C)cc1,"inconclusive: 6.57 µM [inhibitor, partial curve, poor fit]"
16,CN(C)S(=O)(=O)c1cc(NC(=O)CN2CCN(c3ccc(O)cc3)CC2)ccc1Cl,"inconclusive: 1.47 µM [inhibitor, partial curve, poor fit]"
17,COc1ccc(CCN(C)C(=O)c2ccc(COc3ccccc3)o2)cc1OC,"inconclusive: 6.57 µM [inhibitor, partial curve]"
18,COc1ccc(/C=N/NC(=S)NCC2CCCO2)cc1 (stereo not drawn),"inconclusive: 18.5 µM [inhibitor, single point]"
19,CCCc1cc(=O)[nH]c2nnc(SCC(=O)Nc3nnc(SCC)s3)n12,inactive
20,Cc1ccc(C)c(C(=O)CCC(=O)Nc2ccc(F)cc2)c1,"inconclusive: 18.5 µM [inhibitor, single point]"
21,Cc1cc(S(=O)(=O)N2CCN(CC(=O)NC(C)(C#N)C3CC3)CC2)ccc1Br (stereo not drawn),"inconclusive: 18.5 µM [inhibitor, single point]"

# Taken from above.
# Potency, Cc1ccc(C)c(C(=O)CCC(=O)Nc2ccc(F)cc2)c1 reads inconclusive: 18.5 µM [inhibitor, single point]
# Potency, COc1ccc(C(=O)NNC(=O)CSc2nnc(-c3ccc(O)cc3)n2C)cc1 reads inconclusive: 6.57 µM [inhibitor, partial curve, poor fit]
# Potency, CN(C)S(=O)(=O)c1cc(NC(=O)CN2CCN(c3ccc(O)cc3)CC2)ccc1Cl reads inconclusive: 1.47 µM [inhibitor, partial curve, poor fit]
# Potency, COc1ccc(-n2nc(C(=O)NCC(=O)NCc3cccc(F)c3)c3ccccc3c2=O)cc1Cl reads inactive

# — PubChem BioAssay AID504834 (National Center for Advancing Translational Sciences (NCATS), 2011)
